PubChem BioAssay AID1259308 – NCATS – 2017

Aim: 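Knock-downs that increase output of a recombinant reporter protein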 (primary screen)
Cell system: human HEK293 embryonic kidney cells stably expressing firefly luciferase (HEK-CMV-Luc2-Hygro)
Reagents: single siRNA against human genes, 0.8 pmol siRNA per well
Time to read-out: 72 h
Detection: 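Luciferase light (ONE-Glo) measured on one replicate plate set and viability (CellTiter-Glo) on the other, scaled to a negative control siRNA, with robust z-scores and luciferase per cell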
Scale: total luciferase, z-score: higher = more reporter protein produced
Call rule: 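An siRNA counts as active if its total luciferase robust z-score exceeds 3; genes with two or more such siRNAs out of three were retested with fresh siRNAs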
Meaning of the calls: active = raised luciferase; inactive = no rise
This is an unselected part of about 59,000 reagents. About 1,510 of them (2.6%) were called active. 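Calls use total luciferase alone and ignore viability, so some active siRNAs may act by altering cell number.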 A number with no mark means an inactive call. The numbers tell different reagents against one gene apart. Not all columns of the deposit are shown.

Knock-down of KTI12 (KTI12 chromatin associated homolog) #1 came out at: total luciferase, z-score -0.152. Silencing of KTI12 (KTI12 chromatin associated homolog) #2 resulted in: total luciferase, z-score -1.68. For KTI12 (KTI12 chromatin associated homolog) #3, the values are total luciferase, z-score -0.631. ITPK1 (inositol-tetrakisphosphate 1-kinase) #1 showed total luciferase, z-score -0.163. Against ITPK1 (inositol-tetrakisphosphate 1-kinase) #2, the values are total luciferase, z-score -1.99. With knock-down of ITPK1 (inositol-tetrakisphosphate 1-kinase) #3, the record shows total luciferase, z-score 0.441.

After knock-down of SLC17A1 #1 the results were total luciferase, z-score -0.926. Silencing of SLC17A1 #2 came out at: total luciferase, z-score -0.529. SLC17A1 #3 gave total luciferase, z-score 0.712. LIPH (lipase H) #1 scored total luciferase, z-score -0.433. Depletion of LIPH (lipase H) #2 resulted in: total luciferase, z-score 0.571. Against LIPH (lipase H) #3, the values are total luciferase, z-score -0.968.

For STIP1 (stress induced phosphoprotein 1) #1 the deposit lists total luciferase, z-score -0.743. With knock-down of STIP1 (stress induced phosphoprotein 1) #2, the screen gave total luciferase, z-score -0.728. STIP1 (stress induced phosphoprotein 1) #3 showed total luciferase, z-score -0.201. MARK1 (microtubule affinity regulating kinase 1) #1 showed total luciferase, z-score -0.571. MARK1 (microtubule affinity regulating kinase 1) #2 gave total luciferase, z-score 1.78. MARK1 (microtubule affinity regulating kinase 1) #3 scored total luciferase, z-score 0.0672.

After knock-down of TEX26 (testis expressed 26) #1, the record shows total luciferase, z-score -0.418. TEX26 (testis expressed 26) #2 scored total luciferase, z-score -0.4. Silencing of TEX26 (testis expressed 26) #3 gave: total luciferase, z-score -0.898.

4 entries already listed, sorted by “total luciferase, z-score”, high to low.
STIP1 (stress induced phosphoprotein 1) #3 — total luciferase, z-score: -0.201
MARK1 (microtubule affinity regulating kinase 1) #1 — total luciferase, z-score: -0.571
STIP1 (stress induced phosphoprotein 1) #2 — total luciferase, z-score: -0.728
STIP1 (stress induced phosphoprotein 1) #1 — total luciferase, z-score: -0.743

Further records:
For CTHRC1 (collagen triple helix repeat containing 1) #1, the entry reads total luciferase, z-score 3.25 (active). Knock-down of CTHRC1 (collagen triple helix repeat containing 1) #2 resulted in: total luciferase, z-score -1.51. Against CTHRC1 (collagen triple helix repeat containing 1) #3 the deposit lists total luciferase, z-score 0.417. Silencing of RASL12 (RAS like family 12) #1 came out at: total luciferase, z-score 0.271. Depletion of RASL12 (RAS like family 12) #2 came out at: total luciferase, z-score 0.408. For RASL12 (RAS like family 12) #3, the values are total luciferase, z-score -0.976.

Against SYT16 (synaptotagmin 16) #1, the values are total luciferase, z-score 1.1. Silencing of SYT16 (synaptotagmin 16) #2 resulted in: total luciferase, z-score 1.17. For SYT16 (synaptotagmin 16) #3, the entry reads total luciferase, z-score -2.1. PCSK2 (proprotein convertase subtilisin/kexin type 2) #1 showed total luciferase, z-score 0.0452. For PCSK2 (proprotein convertase subtilisin/kexin type 2) #2 the deposit lists total luciferase, z-score -0.76. Silencing of PCSK2 (proprotein convertase subtilisin/kexin type 2) #3 gave: total luciferase, z-score 0.375.
